Results are given in words; binding and its absence hold for the method and conditions named. Binding seen in cells or lysates may run through a third protein. Binding calls can cover weak binding; strength is not graded here.
Target: full-length wild-type RASAL2 (XLG3-EGFP vector) (human (amplified from MDA-MB-468)) (UniProt Q9UJF2)
Test: co-IP; EGFP-vector RASAL2 variants transfected into MDA-MB-468; 1 mg precleared lysate on GFP-Trap agarose beads at 4 C overnight, immunoblotting

Chains of the proteins cited; added tags and fusions are not shown. Lines headed by an entry give the natural chain unless they say otherwise; changes in a name come on top.
UniProt Q9UJF2: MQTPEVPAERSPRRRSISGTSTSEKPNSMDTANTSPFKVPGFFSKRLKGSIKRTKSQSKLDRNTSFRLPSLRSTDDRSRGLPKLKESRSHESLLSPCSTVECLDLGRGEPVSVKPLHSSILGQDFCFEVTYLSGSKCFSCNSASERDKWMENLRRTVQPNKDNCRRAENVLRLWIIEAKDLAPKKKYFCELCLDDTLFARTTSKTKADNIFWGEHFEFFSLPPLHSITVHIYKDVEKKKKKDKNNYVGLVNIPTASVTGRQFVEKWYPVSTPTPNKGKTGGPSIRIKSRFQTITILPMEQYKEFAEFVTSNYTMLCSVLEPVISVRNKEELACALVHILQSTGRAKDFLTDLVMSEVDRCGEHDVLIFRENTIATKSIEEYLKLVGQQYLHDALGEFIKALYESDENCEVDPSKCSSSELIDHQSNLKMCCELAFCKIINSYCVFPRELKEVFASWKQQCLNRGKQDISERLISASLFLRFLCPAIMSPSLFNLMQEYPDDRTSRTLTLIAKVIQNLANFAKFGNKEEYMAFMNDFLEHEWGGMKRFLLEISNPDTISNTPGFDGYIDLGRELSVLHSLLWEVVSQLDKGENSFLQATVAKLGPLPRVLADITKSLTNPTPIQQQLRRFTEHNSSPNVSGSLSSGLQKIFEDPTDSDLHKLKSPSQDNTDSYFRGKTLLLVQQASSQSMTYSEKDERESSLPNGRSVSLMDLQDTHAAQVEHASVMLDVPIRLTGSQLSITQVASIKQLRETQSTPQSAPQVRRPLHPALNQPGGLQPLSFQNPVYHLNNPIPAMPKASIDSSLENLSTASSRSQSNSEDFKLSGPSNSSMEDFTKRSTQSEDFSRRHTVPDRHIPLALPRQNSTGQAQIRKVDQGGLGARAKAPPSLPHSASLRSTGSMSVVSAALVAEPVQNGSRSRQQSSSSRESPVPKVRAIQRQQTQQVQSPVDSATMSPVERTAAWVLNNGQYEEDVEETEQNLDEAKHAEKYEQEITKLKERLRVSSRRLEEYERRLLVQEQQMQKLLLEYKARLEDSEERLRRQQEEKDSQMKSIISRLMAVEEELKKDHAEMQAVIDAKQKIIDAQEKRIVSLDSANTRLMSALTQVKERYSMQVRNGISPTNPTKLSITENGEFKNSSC
UniProt P10415: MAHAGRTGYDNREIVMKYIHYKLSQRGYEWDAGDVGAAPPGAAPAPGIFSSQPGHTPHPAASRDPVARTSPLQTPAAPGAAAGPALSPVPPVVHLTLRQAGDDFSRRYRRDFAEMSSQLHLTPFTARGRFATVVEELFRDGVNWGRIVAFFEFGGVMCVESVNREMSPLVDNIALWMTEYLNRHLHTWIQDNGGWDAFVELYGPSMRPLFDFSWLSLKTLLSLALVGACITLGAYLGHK

binding: binds
Substance: BCL2 (from UniProt P10415 1-239)

Reference: publication PMC11996675
